The source of these data is PMC10298087.

Results are given in words; binding and its absence hold for the method and conditions named. In cells and extracts the contact can be indirect. Here binding means that the protein was enriched with, or labelled near, the bait; the list need not be complete.

Assay [1] addresses wild-type TRIM28 (endogenous, K562 cells) (human (endogenous in K562)) (UniProt Q13263). Briefly: affinity purification with mass spectrometry; IP of endogenous TRIM28 or TRIM28-K304Q from K562 cells with anti-TRIM28-N-conjugated protein A beads; washed, eluted with the antibody-generating peptide; MS (LTQ-Orbitrap Velos, Mascot).
The target of assay [2] is T1, TRIM28-K304Q (endogenous, knock-in K562 clone Q1) (human (endogenous in K562)) (UniProt Q13263).
T1 sequence: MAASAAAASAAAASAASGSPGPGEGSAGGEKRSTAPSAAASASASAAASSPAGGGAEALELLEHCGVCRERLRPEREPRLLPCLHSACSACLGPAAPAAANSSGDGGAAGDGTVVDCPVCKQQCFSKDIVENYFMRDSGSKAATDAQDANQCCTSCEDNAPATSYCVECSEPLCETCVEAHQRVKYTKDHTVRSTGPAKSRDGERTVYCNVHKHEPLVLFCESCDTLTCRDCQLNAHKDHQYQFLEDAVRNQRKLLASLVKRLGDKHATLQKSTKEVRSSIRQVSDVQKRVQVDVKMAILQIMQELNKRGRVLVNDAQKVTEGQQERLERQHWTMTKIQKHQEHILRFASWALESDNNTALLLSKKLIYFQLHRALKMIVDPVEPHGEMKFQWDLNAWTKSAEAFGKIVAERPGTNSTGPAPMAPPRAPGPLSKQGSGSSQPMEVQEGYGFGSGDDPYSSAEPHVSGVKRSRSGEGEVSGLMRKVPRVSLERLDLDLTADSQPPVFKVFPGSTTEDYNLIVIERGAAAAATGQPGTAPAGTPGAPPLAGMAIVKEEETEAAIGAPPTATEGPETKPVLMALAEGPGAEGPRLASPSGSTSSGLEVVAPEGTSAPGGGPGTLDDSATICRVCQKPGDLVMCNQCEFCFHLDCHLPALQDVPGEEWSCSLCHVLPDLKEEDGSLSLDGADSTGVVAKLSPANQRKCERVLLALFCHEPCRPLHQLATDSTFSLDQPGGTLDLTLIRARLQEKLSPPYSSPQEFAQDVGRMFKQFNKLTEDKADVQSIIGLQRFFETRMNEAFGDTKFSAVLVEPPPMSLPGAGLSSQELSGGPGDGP
The assay is described as above.

B1: REXO5 (protein, UniProt Q96IC2 1-774)
chain: MEPEREGTERHPRKVRESRQAPNKLVGAAEAMKAGWDLEESQPEAKKARLSTILFTDNCEVTHDQLCELLKYAVLGKSNVPKPSWCQLFHQNHLNNVVVFVLQGMSQLHFYRFYLEFGCLRKAFRHKFRLPPPSSDFLADVVGLQTEQRAGDLPKTMEGPLPSNAKAAINLQDDPIIQKYGSKKVGLTRCLLTKEEMRTFHFPLQGFPDCENFLLTKCNGSIADNSPLFGLDCEMCLTSKGRELTRISLVAEGGCCVMDELVKPENKILDYLTSFSGITKKILNPVTTKLKDVQRQLKALLPPDAVLVGHSLDLDLRALKMIHPYVIDTSLLYVREQGRRFKLKFLAKVILGKDIQCPDRLGHDATEDARTILELARYFLKHGPKKIAELNLEALANHQEIQAAGQEPKNTAEVLQHPNTSVLECLDSVGQKLLFLTRETDAGELPSSRNCQTIKCLSNKEVLEQARVEIPLFPFSIVQFSFKAFSPVLTEEMNKRMRIKWTEISTVYAGPFSKNCNLRALKRLFKSFGPVQSMTFVLETRQPHLCIQYEVLEAAQLAIESLDGILVDGICIKVQRPVTELTLDCDTLVNELEGDSENQGSIYLSGVSETFKEQLLQEPRLFLGLEAVILPKDLKSGKQKKYCFLKFKSFGSAQQALNILTGKDWKLKGRHALTPRHLHAWLRGLPPESTRLPGLRVVPPPFEQEALQTLKLDHPKIAAWRWSRKIGKLYNSLCPGTLCLILLPGTKSTHGSLSGLGLMGIKEEEESAGPGLCS
Consider B1, for which the binding entry in assay [1] and in assay [2] was “binds” each time.

B2: ZFP92 (protein, UniProt A6NM28 1-416)
chain: MAAILLTTRPKVPVSFEDVSVYFTKTEWKLLDLRQKVLYKRVMLENYSHLVSLGFSFSKPHLISQLERGEGPWVADIPRTWATAGLHIGDRTQSKTSTSTQKHSGRQLPGADPQGGKEGQAARSSVLQRGAQGLGQSSAAGPQGPKGAEKRYLCQQCGKAFSRSSNLIKHRIIHSGEKPYACPECGKLFRRSFALLEHQRIHSGEKPYACPECSKTFTRSSNLIKHQVIHSGERPFACGDCGKLFRRSFALLEHARVHSGERPYACPECGKAFSRSSNLIEHQRTHRGEKPYACGQCAKAFKGVSQLIHHQRSHSGERPFACRECGKAFRGRSGLSQHRRVHSGEKPYECSDCGKAFGRRANLFKHQAVHGARRPAKAETARRLAGPGSTGPGSAVAATSPPRPSTAARPSRPSRR
B2: the binding result in assay [1] and in assay [2] was “binds” throughout.

B3: HNRNP M (protein, UniProt P52272 1-730)
chain: MAAGVEAAAEVAATEIKMEEESGAPGVPSGNGAPGPKGEGERPAQNEKRKEKNIKRGGNRFEPYANPTKRYRAFITNIPFDVKWQSLKDLVKEKVGEVTYVELLMDAEGKSRGCAVVEFKMEESMKKAAEVLNKHSLSGRPLKVKEDPDGEHARRAMQKVMATTGGMGMGPGGPGMITIPPSILNNPNIPNEIIHALQAGRLGSTVFVANLDYKVGWKKLKEVFSMAGVVVRADILEDKDGKSRGIGTVTFEQSIEAVQAISMFNGQLLFDRPMHVKMDERALPKGDFFPPERPQQLPHGLGGIGMGLGPGGQPIDANHLNKGIGMGNIGPAGMGMEGIGFGINKMGGMEGPFGGGMENMGRFGSGMNMGRINEILSNALKRGEIIAKQGGGGGGGSVPGIERMGPGIDRLGGAGMERMGAGLGHGMDRVGSEIERMGLVMDRMGSVERMGSGIERMGPLGLDHMASSIERMGQTMERIGSGVERMGAGMGFGLERMAAPIDRVGQTIERMGSGVERMGPAIERMGLSMERMVPAGMGAGLERMGPVMDRMATGLERMGANNLERMGLERMGANSLERMGLERMGANSLERMGPAMGPALGAGIERMGLAMGGGGGASFDRAIEMERGNFGGSFAGSFGGAGGHAPGVARKACQIFVRNLPFDFTWKMLKDKFNECGHVLYADIKMENGKSKGCGVVKFESPEVAERACRMMNGMKLSGREIDVRIDRNA
As to B3, the binding entry in assay [1] and in assay [2] was “binds” in each case.
